The values that follow come from article PMC9121323, “Using fluorescence anisotropy to monitor chaperone dispersal of RNA-binding protein condensates”.

Results are given in words; binding and its absence hold for the method and conditions named. Some binding calls cover weakened binding; strength is not graded here.

The test concerns the target T1, Poly(A)-binding protein (Pab1) (S. cerevisiae), P04147.
T1 chain: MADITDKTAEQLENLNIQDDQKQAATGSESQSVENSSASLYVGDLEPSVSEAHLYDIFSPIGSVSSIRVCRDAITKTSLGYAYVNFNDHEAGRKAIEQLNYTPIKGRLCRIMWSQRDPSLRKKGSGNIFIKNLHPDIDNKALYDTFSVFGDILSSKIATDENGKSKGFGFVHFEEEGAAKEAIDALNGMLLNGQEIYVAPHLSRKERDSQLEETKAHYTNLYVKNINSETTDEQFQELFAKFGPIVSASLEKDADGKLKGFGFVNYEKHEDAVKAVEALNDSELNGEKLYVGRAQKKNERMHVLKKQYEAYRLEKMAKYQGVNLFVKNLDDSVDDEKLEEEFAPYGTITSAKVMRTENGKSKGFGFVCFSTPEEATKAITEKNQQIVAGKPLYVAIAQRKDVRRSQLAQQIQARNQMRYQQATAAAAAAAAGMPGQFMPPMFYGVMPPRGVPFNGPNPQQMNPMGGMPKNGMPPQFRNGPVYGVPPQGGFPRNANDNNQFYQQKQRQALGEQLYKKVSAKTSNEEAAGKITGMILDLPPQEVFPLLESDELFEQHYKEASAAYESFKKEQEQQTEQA
The test is described as follows: SEC; 500 uL of 25 uM Pab1 in 20 mM HEPES pH 6.8, 150 mM KCl, 2.5 mM MgCl2, 1 mM DTT, heated at 42°C for 20 min, centrifuged 3 min at 8,000 g; supernatant on Superose 6 10/300 in 20 mM HEPES pH 7.3, 150 mM KCl, 2.5 mM MgCl2, 1 mM DTT; void volume cutoff 5,000 kDa; both purified. The settings on record: remark: other sources report otherwise.

B1: Poly(A)-binding protein (Pab1), P04147 1-577 (protein)
chain: T1 chain
For B1, the binding entry is “binds”.
